# Some of the results follow. Values are worked out from sequencing counts and are noisy.
# T1: Homer1 EVH1 domain
# T1 chain: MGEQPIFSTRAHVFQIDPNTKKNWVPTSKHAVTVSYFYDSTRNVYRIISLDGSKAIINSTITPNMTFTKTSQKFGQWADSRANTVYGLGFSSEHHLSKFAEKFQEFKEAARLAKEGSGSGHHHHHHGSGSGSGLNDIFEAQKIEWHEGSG
# B1: unnamed (peptide)
# chain: AKPVIPTAAKRIDLYARALFPFCFLFFNVIYWSIYL
# B2: unnamed (peptide)
# chain: MEPAAALHFSRPASLLLLFSLCALVSAQVTVVGPTD
# B3: unnamed (peptide)
# chain: MALGACGLLLLLAVPGVSLRTLQPGCGRPQVSDAGG
# B4: unnamed (peptide)
# chain: ETFQTSSIKESTLIPPPPPFEQTFPSLQPGASTLQR
# B5: unnamed (peptide)
# chain: MSTKPDMIQKCLWLEILMGIFIAGTLSLDCNLLNVH
# B6: unnamed (peptide)
# chain: ALLSEVIQLMQYVIYGIASFFFLYGIILLAEGFYTT
# B7: unnamed (peptide)
# chain: QARAAKLSEGSQPAEEEEDQETPSRNLRVRADRNLK
# B8: unnamed (peptide)
# chain: LNDAYNWEFLIWETALLLFLLRLASLGSETNKKYSN
# B9: unnamed (peptide)
# chain: IAPKSPLGLFIRKPFIKFICPTASYLTFLFLLLLAS
# B10: unnamed (peptide)
# chain: VLTGTDSETLGRVAESGLPALLLQCLYLFFVFPLDK
# B11: unnamed (peptide)
# chain: MRALLALCLLLGWLRWGPAGAQQSGEYCHGWVDVQG
# B12: unnamed (peptide)
# chain: MSNNGADLTFGYISCFVAILLFGSNFVPLKKFDTGD
# B13: unnamed (peptide)
# chain: FARLTVSEWLRLLPFLGVLALLGYLAVRPFLPKKKQ
# B14: unnamed (peptide)
# chain: KFKTSPYFPTTARKLISDFAIILSILIFCVIDALVG
# B15: unnamed (peptide)
# chain: KDPITIVDVPAHLQNSWESYYLEILMVTGLLAYIMN
# B16: unnamed (peptide)
# chain: MSKSCGNNLAAISVGISLLLLLVVCGIGCVWHWKHR
# B17: unnamed (peptide)
# chain: VVTRALMITADILAGFGFLTLLLGLDCVKFLPDEPY
# B18: unnamed (peptide)
# chain: SSFEDLLANNILRIFVWVIAFITCFGNLFVIGMRSF
# B19: unnamed (peptide)
# chain: RKEFQKIAMATAIGFAIMGFIGFFVKLIHIPINNII
# B20: unnamed (peptide)
# chain: PRNLFEQFHRAANLYFLFLVVLNWVPLVEAFQKEIT
# B21: unnamed (peptide)
# chain: LCTLGLIMGTFTLCWLPFFLANVLRALGGPSLVPGP
# B22: unnamed (peptide)
# chain: EEGQASQELQTLPRVPALFRRQEEDFLLPETTVMKG
# B23: unnamed (peptide)
# chain: LEVAAWFILLIFILEILLKWLSNFSVFWKSAWNVFD
# B24: unnamed (peptide)
# chain: ISMGAFFLTLLSCFYVIGFLLFKNRSCRILHKALSN
# B25: unnamed (peptide)
# chain: FIILLNIIFLVITLCKMVKHSNTLKPDSSRLENIKS
# B26: unnamed (peptide)
# chain: MSLQEMFRFPMGLLLGSVLLVASAPATLEPPGCSNK
# B27: unnamed (peptide)
# chain: RKEPRASGSARPAMLLWPLRGWAARALRCFGPGSRG
# B28: unnamed (peptide)
# chain: MAEAKTHWLGAALSLIPLIFLISGAEAASFQRNQLL
# B29: unnamed (peptide)
# chain: EKLLDPRIYYINSAASFFAFIATLLYILHAFSIYYP
# B30: unnamed (peptide)
# chain: MAGPWTFTLLCGLLAATLIQATLSPTAVLILGPKVI
# B31: unnamed (peptide)
# chain: IARVFVIIYMALLHLWVMIVLLTYTPEMHHDQPYGK
# B32: unnamed (peptide)
# chain: RNLLLLAWYFGSLLVIFCVELACGVWTYEQELMVPV
# B33: unnamed (peptide)
# chain: MPERLAEMLLDLWTPLIILWITLPPCIYMAPMNQSQ
# B34: unnamed (peptide)
# chain: LGPVCTVIVINSLLLTWTLWILRQRLSSVNAEVSTL
# B35: unnamed (peptide)
# chain: MAGIFYFALFSCLFGICDAVTGSRVYPANEVTLLDS
# B36: unnamed (peptide)
# chain: GTISLSCFLAVVTSYMVILVSLRKHSAKGRQKALST
# B37: unnamed (peptide)
# chain: IVPHRKSDLSKVVVRALFTGACVSLISACMAGILYV
# B38: unnamed (peptide)
# chain: PGLRVSGEQSLAWGLGGPSQSQKRKGDPLASRRKKK
# B39: unnamed (peptide)
# chain: SSMGGRPSSPLDKQQRQHLRGQVDTLLRNFLPCYRG
# B40: unnamed (peptide)
# chain: LKGALIKTQLCVLFCIQLFLRLIILWLCILHSMCNL
# B41: unnamed (peptide)
# chain: EMVLTFLFSAALLATRSVITINKNGPFDFAAQPVDE
# B42: unnamed (peptide)
# chain: TEDIGSKGYSLGIFLGVNLLAFLIIVFSYITMFCSI
# B43: unnamed (peptide)
# chain: RGDPSVGIFFFVSYIIISFLVVVNMYIAVILENFSV
# B44: unnamed (peptide)
# chain: CSIGMLRFVNLLFSVGNFYLLYLLFHKVQPRNKEYF
# Target: T1, Homer1 EVH1 domain
# Assay: enrichment score (AUC of log2 frequency ratio across FACS sorting rounds) (log2 AUC); higher = stronger enrichment for Homer1 EVH1 binding
row,Binder,enrichment score
1,B1,1.89
2,B2,1.99
3,B3,3.16
4,B4,6.28
5,B5,0.58
6,B6,4.5
7,B7,-0.746
8,B8,2.12
9,B9,3.07
10,B10,2.5
11,B11,-0.292
12,B12,1.29
13,B13,1.28
14,B14,-1
15,B15,3.26
16,B16,-2.8
17,B17,0.74
18,B18,3.59
19,B19,-0.757
20,B20,-2.62
21,B21,2.77
22,B22,5.46

row,Binder,enrichment score
1,B23,-1.97
2,B24,2.34
3,B25,0.744
4,B26,2.32
5,B27,-0.0768
6,B28,0.887
7,B29,4.49
8,B30,4.15
9,B31,1.01
10,B32,0.747
11,B33,-1.07
12,B34,3.49
13,B35,1.32
14,B36,0.887
15,B37,0.841
16,B38,0.142
17,B39,1.79
18,B40,-2.94
19,B41,-1.8
20,B42,-0.487
21,B43,0.305
22,B44,1.6
